Experimental data reported in publication doi:10.1101/2022.09.28.509878.
Results are given in words; binding and its absence hold for the method and conditions named.

Biological target: NT*-hCPEB3 (human) (UniProt Q8NE35)
Test: native MS

B1: NT*-hCPEB3 (protein, UniProt Q8NE35 1-698)
chain: MQDDLLMDKSKTQPQPQQQQRQQQQPQPESSVSEAPSTPLSSETPKPEENSAVPALSPAAAPPAPNGPDKMQMESPLLPGLSFHQPPQQPPPPQEPAAPGASLSPSFGSTWSTGTTNAVEDSFFQGITPVNGTMLFQNFPHHVNPVFGGTFSPQIGLAQTQHHQQPPPPAPAPQPAQPAQPPQAQPPQQRRSPASPSQAPYAQRSAAAAYGHQPIMTSKPSSSSAVAAAAAAAAASSASSSWNTHQSVNAAWSAPSNPWGGLQAGRDPRRAVGVGVGVGVGVPSPLNPISPLKKPFSSNVIAPPKFPRAAPLTSKSWMEDNAFRTDNGNNLLPFQDRSRPYDTFNLHSLENSLMDMIRTDHEPLKGKHYPPSGPPMSFADIMWRNHFAGRMGINFHHPGTDNIMALNNAFLDDSHGDQALSSGLSSPTRCQNGERVERYSRKVFVGGLPPDIDEDEITASFRRFGPLVVDWPHKAESKSYFPPKGYAFLLFQEESSVQALIDACLEEDGKLYLCVSSPTIKDKPVQIRPWNLSDSDFVMDGSQPLDPRKTIFVGGVPRPLRAVELAMIMDRLYGGVCYAGIDTDPELKYPKGAGRVAFSNQQSYIAAISARFVQLQHNDIDKRVEVKPYVLDDQMCDECQGTRCGGKFAPFFCANVTCLQYYCEYCWASIHSRAGREFHKPLVKEGGDRPRHVPFRWS
  binding: no binding (tested: 10 to 15 μM protein)
